Laboratory results published in patent publication US20170189504A1, “NOVEL PEPTIDES AND COMBINATION OF PEPTIDES FOR USE IN IMMUNOTHERAPY AGAINST VARIOUS CANCERS” (immatics biotechnologies GmbH, priority 2015, published 2017).
For some assays here: For expression read-outs the peptide stands for its source gene, whose mRNA was measured; the gene is not named for every peptide.

Assays:
source genes (mRNA) [1] = test: Gene and exon expression of source genes, TCGA tumor samples compared with normal tissue samples (Lonsdale, 2013) (Table 17); parameters: species or system human; conditions: tumor expression more than 2-fold above highest 75% percentile of high and medium risk normal tissues; for Target coverage: over-expression category of source gene, BLCA: Bladder urothelial carcinoma (N = 408); for Target coverage: over-expression category of source gene, BRCA: Breast cancer (N = 1104); for Target coverage: over-expression category of source gene, CHOL: Cholangiocarcinoma (N = 36); for Target coverage: over-expression category of source gene, READ: Colon and rectal adenocarcinoma (N = 167); for Target coverage: over-expression category of source gene, COAD: Colon and rectal adenocarcinoma (N = 462); for Target coverage: over-expression category of source gene, ESCA: Esophageal cancer (N = 185); for Target coverage: over-expression category of source gene, LUAD: Lung adenocarcinoma (N = 517); for Target coverage: over-expression category of source gene, LUSC: Lung squamous cell carcinoma (N = 503); for Target coverage: over-expression category of source gene, OV: Ovarian serous cystadenocarcinoma (N = 309); for Target coverage: over-expression category of source gene, PAAD: Pancreatic ductal adenocarcinoma (N = 179); for Target coverage: over-expression category of source gene, KIRP: Papillary kidney carcinoma (N = 291); for Target coverage: over-expression category of source gene, PRAD: Prostate adenocarcinoma (N = 498); for Target coverage: over-expression category of source gene, SKCM: Skin cutaneous melanoma (N = 473); for Target coverage: over-expression category of source gene, STAD: Stomach adenocarcinoma (N = 415); for Target coverage: over-expression category of source gene, UCEC: Uterine corpus endometrial carcinoma (N = 546); for Target coverage: over-expression category of source gene, LAML: Acute Myeloid Leukemia (N = 173); for Target coverage: over-expression category of source gene, KIRC: Clear cell kidney carcinoma (N = 534); for Target coverage: over-expression category of source gene, GBM: Glioblastoma multiforme (N = 169); for Target coverage: over-expression category of source gene, LGG: Lower grade glioma (N = 534); for Target coverage: over-expression category of source gene, DLBC: Lymphoid neoplasm diffuse large B-cell lymphoma (N = 48)
HLA-A*24 = test: Identification and relative LC-MS quantitation of HLA-A*24-presented tumor-associated peptides on tissue samples (presentation profiles, Tables 14A, 14B, 16, FIG. 1); parameters: species or system human; key to Presentation score GC / Presentation score NSCLC / Presentation score PCA / Presentation score GB / Presentation score HCC / Presentation score RCC: specifically presented on tumors (++++); very highly over-presented on tumors compared to a panel of normal tissues (+++); highly over-presented on tumors compared to a panel of normal tissues (++); over-presented on tumors compared to a panel of normal tissues (+); conditions: for Presentation score GC: gastric cancer (N = 44) vs panel of normal tissues (N = 70); for Presentation score NSCLC: non-small cell lung cancer (N = 91) vs panel of normal tissues (N = 70); for Peptide Presentation on cancer entities: Table 14A, HLA-A*24-binding tumor-associated peptides, cancer entities on which the peptide was found presented; for Presentation score HCC: hepatocellular carcinoma (N = 15) vs panel of normal tissues (N = 70)
source genes (mRNA) [2] = test: Expression profiling of source genes by in-house RNASeq of tumor and normal tissues (Table 18, FIG. 2); parameters: species or system human; key: very highly over-expressed in tumors compared to a panel of normal tissues (+++); highly over-expressed in tumors compared to a panel of normal tissues (++); over-expressed in tumors compared to a panel of normal tissues (+); conditions: source gene of peptide; for Expression score BRCA: BRCA tumors vs panel of normal tissues; for Expression score CRC: colorectal cancer (N = 20) vs panel of normal tissues; for Expression score OSCAR: esophageal cancer incl. gastric-esophageal junction (N = 11) vs panel of normal tissues; for Expression score GBC_CCC: gallbladder adenocarcinoma and cholangiocarcinoma (N = 3) vs panel of normal tissues; for Expression score NSCLC: non-small cell lung cancer (N = 11) vs panel of normal tissues; for Expression score OC: ovarian cancer (N = 12) vs panel of normal tissues; for Expression score SCLC: small cell lung cancer (N = 10) vs panel of normal tissues; for Expression score NHL: non-Hodgkin lymphoma (N = 10) vs panel of normal tissues
[3] = FIG. 1, A*24 positive samples, only samples with presentation shown

Substance	Target coverage: over-expression category of source gene, BLCA (source genes (mRNA) [1])	Target coverage: over-expression category of source gene, BRCA (source genes (mRNA) [1])	Target coverage: over-expression category of source gene, CHOL (source genes (mRNA) [1])	Target coverage: over-expression category of source gene, READ (source genes (mRNA) [1])	Target coverage: over-expression category of source gene, COAD (source genes (mRNA) [1])	Target coverage: over-expression category of source gene, ESCA (source genes (mRNA) [1])	Target coverage: over-expression category of source gene, LUAD (source genes (mRNA) [1])	Target coverage: over-expression category of source gene, LUSC (source genes (mRNA) [1])	Target coverage: over-expression category of source gene, OV (source genes (mRNA) [1])	Target coverage: over-expression category of source gene, PAAD (source genes (mRNA) [1])	Target coverage: over-expression category of source gene, KIRP (source genes (mRNA) [1])	Target coverage: over-expression category of source gene, PRAD (source genes (mRNA) [1])	Target coverage: over-expression category of source gene, SKCM (source genes (mRNA) [1])	Target coverage: over-expression category of source gene, STAD (source genes (mRNA) [1])	Target coverage: over-expression category of source gene, UCEC (source genes (mRNA) [1])	Presentation score GC (HLA-A*24; HLA-A*24 peptides)	Presentation score NSCLC (HLA-A*24; HLA-A*24 peptides)	Peptide Presentation on cancer entities (HLA-A*24)	Expression score BRCA (source genes (mRNA) [2])	Expression score SCLC (source genes (mRNA) [2])	other results
277: peptide found in PTK7 (gene looked up) (VYQGHTALL; listed as Homo sapiens) [compound 277]	B (>= 20% of tumors above the cutoff, but <50%)	B (>= 20% of tumors above the cutoff, but <50%)	C (>=5% of tumors above the cutoff, but <20%)	B (>= 20% of tumors above the cutoff, but <50%)	B (>= 20% of tumors above the cutoff, but <50%)	B (>= 20% of tumors above the cutoff, but <50%)	A (>=50% of tumors above the cutoff)	A (>=50% of tumors above the cutoff)	A (>=50% of tumors above the cutoff)	B (>= 20% of tumors above the cutoff, but <50%)	C (>=5% of tumors above the cutoff, but <20%)	B (>= 20% of tumors above the cutoff, but <50%)	B (>= 20% of tumors above the cutoff, but <50%)	C (>=5% of tumors above the cutoff, but <20%)	A (>=50% of tumors above the cutoff)	++	+++	GB, GC, NSCLC, PCA	++	++	number of cell lines where the peptide was found to be presented (HLA-A*24; FIG. 1, A*24 positive samples, cell lines include benign prostate hyperplasias): 2; number of cancer tissues where the peptide was found to be presented (HLA-A*24; [3]): 64; number of normal tissues where the peptide was found to be presented (HLA-A*24; [3]): 4; Presentation score PCA (HLA-A*24; HLA-A*24 peptides, prostate cancer (N = 40) vs panel of normal tissues (N = 70)): +; Expression score CRC (source genes (mRNA) [2]): +; Expression score OSCAR (source genes (mRNA) [2]): +++; Expression score GBC_CCC (source genes (mRNA) [2]): ++; Expression score GC (source genes (mRNA) [2]; gastric cancer (N = 11) vs panel of normal tissues): +; Expression score NSCLC (source genes (mRNA) [2]): +++; Expression score OC (source genes (mRNA) [2]): ++; Expression score PC (source genes (mRNA) [2]; pancreatic cancer (N = 26) vs panel of normal tissues): +; Expression score PCA (source genes (mRNA) [2]; prostate cancer and benign prostate hyperplasia (N = 5) vs panel of normal tissues): +; Expression score UBC (source genes (mRNA) [2]; urinary bladder cancer (N = 10) vs panel of normal tissues): ++; Expression score UEC (source genes (mRNA) [2]; uterine cancer (N = 10) vs panel of normal tissues): +++
281: peptide found in PRKDC (gene looked up) (PYRLIFEKF; listed as Homo sapiens) [compound 281]	B (>= 20% of tumors above the cutoff, but <50%)	A (>=50% of tumors above the cutoff)	C (>=5% of tumors above the cutoff, but <20%)	B (>= 20% of tumors above the cutoff, but <50%)	B (>= 20% of tumors above the cutoff, but <50%)	A (>=50% of tumors above the cutoff)	B (>= 20% of tumors above the cutoff, but <50%)	A (>=50% of tumors above the cutoff)	B (>= 20% of tumors above the cutoff, but <50%)	C (>=5% of tumors above the cutoff, but <20%)	C (>=5% of tumors above the cutoff, but <20%)	C (>=5% of tumors above the cutoff, but <20%)	A (>=50% of tumors above the cutoff)	A (>=50% of tumors above the cutoff)	C (>=5% of tumors above the cutoff, but <20%)		+++	NSCLC, HCC	+	+	Target coverage: over-expression category of source gene, LAML (source genes (mRNA) [1]): A (>=50% of tumors above the cutoff); Target coverage: over-expression category of source gene, KIRC (source genes (mRNA) [1]): C (>=5% of tumors above the cutoff, but <20%); Target coverage: over-expression category of source gene, GBM (source genes (mRNA) [1]): C (>=5% of tumors above the cutoff, but <20%); Target coverage: over-expression category of source gene, KICH (source genes (mRNA) [1]; Kidney chromophobe (N = 66)): C (>=5% of tumors above the cutoff, but <20%); Target coverage: over-expression category of source gene, LGG (source genes (mRNA) [1]): B (>= 20% of tumors above the cutoff, but <50%); Target coverage: over-expression category of source gene, DLBC (source genes (mRNA) [1]): C (>=5% of tumors above the cutoff, but <20%); Presentation score HCC (HLA-A*24; HLA-A*24 peptides): +++; Expression score CRC (source genes (mRNA) [2]): +; Expression score OSCAR (source genes (mRNA) [2]): +; Expression score GBC_CCC (source genes (mRNA) [2]): +; Expression score GB (source genes (mRNA) [2]; glioblastoma (N = 24) vs panel of normal tissues): +; Expression score NHL (source genes (mRNA) [2]): +; Expression score NSCLC (source genes (mRNA) [2]): +; Expression score OC (source genes (mRNA) [2]): +
282: peptide found in NUP93 (gene looked up) (KFVDSTFYL; listed as Homo sapiens) [compound 282]	A (>=50% of tumors above the cutoff)	B (>= 20% of tumors above the cutoff, but <50%)	B (>= 20% of tumors above the cutoff, but <50%)	A (>=50% of tumors above the cutoff)	A (>=50% of tumors above the cutoff)	A (>=50% of tumors above the cutoff)	B (>= 20% of tumors above the cutoff, but <50%)	A (>=50% of tumors above the cutoff)	A (>=50% of tumors above the cutoff)	B (>= 20% of tumors above the cutoff, but <50%)	B (>= 20% of tumors above the cutoff, but <50%)	A (>=50% of tumors above the cutoff)	A (>=50% of tumors above the cutoff)	A (>=50% of tumors above the cutoff)	A (>=50% of tumors above the cutoff)	+++	+++	GB, GC, NSCLC, HCC		+	Target coverage: over-expression category of source gene, LAML (source genes (mRNA) [1]): A (>=50% of tumors above the cutoff); Target coverage: over-expression category of source gene, KIRC (source genes (mRNA) [1]): C (>=5% of tumors above the cutoff, but <20%); Target coverage: over-expression category of source gene, GBM (source genes (mRNA) [1]): A (>=50% of tumors above the cutoff); Target coverage: over-expression category of source gene, LIHC (source genes (mRNA) [1]; Liver hepatocellular carcinoma (N = 374)): C (>=5% of tumors above the cutoff, but <20%); Target coverage: over-expression category of source gene, LGG (source genes (mRNA) [1]): A (>=50% of tumors above the cutoff); Target coverage: over-expression category of source gene, DLBC (source genes (mRNA) [1]): A (>=50% of tumors above the cutoff); Presentation score GB (HLA-A*24; HLA-A*24 peptides, glioblastoma (N = 18) vs panel of normal tissues (N = 70)): +++; Presentation score HCC (HLA-A*24; HLA-A*24 peptides): +++; Expression score NHL (source genes (mRNA) [2]): +
